The values below come from article PMC12501282.

In the assay the target is T1, STAT1 (mouse (endogenous in primary cardiac fibroblasts)) (UniProt P42225).
T1 sequence: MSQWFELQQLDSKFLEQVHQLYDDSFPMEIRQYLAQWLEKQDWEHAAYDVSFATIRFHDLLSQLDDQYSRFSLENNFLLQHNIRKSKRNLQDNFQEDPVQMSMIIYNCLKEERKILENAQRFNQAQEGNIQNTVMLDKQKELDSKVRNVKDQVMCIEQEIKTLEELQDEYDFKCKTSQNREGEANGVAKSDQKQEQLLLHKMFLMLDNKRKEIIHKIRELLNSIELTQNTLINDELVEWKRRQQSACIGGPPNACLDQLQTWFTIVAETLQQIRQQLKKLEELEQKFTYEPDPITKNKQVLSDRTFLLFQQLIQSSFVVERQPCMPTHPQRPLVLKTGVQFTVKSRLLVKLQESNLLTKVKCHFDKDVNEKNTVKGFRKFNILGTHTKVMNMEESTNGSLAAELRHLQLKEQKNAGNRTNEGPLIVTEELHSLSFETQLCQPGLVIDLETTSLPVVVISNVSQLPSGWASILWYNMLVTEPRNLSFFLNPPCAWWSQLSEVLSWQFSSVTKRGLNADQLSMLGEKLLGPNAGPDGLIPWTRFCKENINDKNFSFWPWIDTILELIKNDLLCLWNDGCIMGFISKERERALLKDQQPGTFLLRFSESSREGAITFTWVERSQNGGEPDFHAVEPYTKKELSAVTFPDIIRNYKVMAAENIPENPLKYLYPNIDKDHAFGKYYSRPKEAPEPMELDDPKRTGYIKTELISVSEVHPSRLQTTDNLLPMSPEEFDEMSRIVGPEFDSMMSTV
Put plainly: co-IP; primary cardiac fibroblasts isolated from WT and CARMA3 KO mice heart, TGF-β1 stimulation; which protein was precipitated is not told.

No constants are given. Whether binding was seen depends on the method and setting. In cells and extracts the contact can be indirect. Some results given as binding are weak or reduced against the parent protein; the word gives no strength.

B1: Caspase recruitment domain and membrane-associated guanylate kinase-like protein 3 (CARMA3) (protein, UniProt P58660 1-1021)
chain: MQGRADAGEADEEAGAGSGSEAEEDALWERIEGVRHRLTRALNPAKLTPYLRQCRVLDEQDEEEVLSTYRFPCRANRTGRLIDILRCRGKRGFEAFLEALEFYYPEHFTLLTGQEPAQRCSMILDEEGPEGLTQFLMTEVRRLREARKSQLHREQQLQARGRALEEERAGLEQRLREQQQAQERCQRLREDWEAGSLELLRLKDENYMIAMRLAQLSEEKNSAVLRSRDLQLAVDQLKLKVSRLEEECALLRRARGPPPGAEEKEREPDGADLLSELRAENQRLTASLQELQEGLQQEMSRPGAAGSERILLDILEHDWREAQDSRQELCQKLHAVQGELQWAEELRDKYLQEMEDLRLKHRTLLKDCDLYKHRMATVLAQLEEIEKERDQAIQSRDRIQLQYSQSLIEKDQYRKQVRGLEAERDELLTTVTSLEGTKAMLEAQLQRTQGGSCLKACASSHSLCSNLSSTWSLSEFPSPLGGPEATGEAGGSEPHTSEEATDSEKEINRLSILPFPPSAGSILRRQREEDPEPPKRSFSSMSDITGSVTLKPWSPGLSSSSSSDSVWPLGKPEGLLARGCGLDFLNRSLAIRVSGWSPPAGLDPQDKSPDSMPGLGDRWSGAVVRRVLSGPGSARTEQKEPRAEGTGLEGAGLEAEAQQRTLPWNQSSTLPFLLDSKACHSFHEALDAWAKGPGAEPFYIRANFSLPERSDPHALCVKAQEILRLVDPAHKRRQEWFCTRVDTLTLRDLDRGTVPNYQRAQQLLEVQEKYLISSRHRSPRSNLKKRALGLVRPKPAGGTAGDSAEQLPAEPCSELERSLKPYSLVRPLLVSALRPVVLLPECLAPRLIRNLLDLPSSRLDFQVCPAESLSGEEQCTSSAPGAPKAWPATAGLGSRIRAIQESVGKKHCLLELGARGVRELVHSEVYPIVIHVEVTEKNVREIRGLLGRPGWRDSELLRQCRGSEQWLWGLPCSWVQVPAHAWGHAEELAKVVRGRILQEQARLVWVERGSSRGGSGSSSEA
On to B1, for which the binding result is given as “binds”.
